System: HLA molecules of primary tumor samples
Test: Identification of tumor associated peptides presented on the cell surface (HLA immune precipitation, LC-MS)
Design: species or system human
Conditions: for Peptide Presentation on cancer entities: entities on which the peptide was presented, CLL = chronic lymphocytic leukemia, AML = acute myeloid leukemia, CML = Chronic myeloid leukemia; for Peptide Presentation on tumor types: tumor entities on which the peptide was found presented (Table 8b); for presentation on cancer entities (Table 8a): CLL, AML, CML samples; for presentation on cancer entities (Table 8b): other cancer entities

Row | Substance | Peptide Presentation on cancer entities | Peptide Presentation on tumor types | presentation on cancer entities (Table 8a) | presentation on cancer entities (Table 8b)
1 | 261 (NEIEHIPVW; listed as Homo sapiens) [compound 261] | CLL | NHL, OSCAR | – | –
2 | 262 (QENQAETHAW; listed as Homo sapiens) [compound 262] | CLL | NHL | – | –
3 | 263 (REAGFQVKAY; listed as Homo sapiens) [compound 263] | CLL | MEL, NHL | – | –
4 | 264 (SEDHSGSYW; listed as Homo sapiens) [compound 264] | CLL | CRC, GC, MEL, NHL, NSCLCadeno, NSCLCsquam | – | –
5 | 265 (QEVDASIFKAW; listed as Homo sapiens) [compound 265] | CLL | BRCA, CCC, CRC, GBC, GC, HCC, HNSCC, MEL, NHL, NSCLCadeno, NSCLCother, NSCLCsquam, OC, OSCAR, PACA, PRCA, RCC, SCLC, UBC, UEC | – | –
6 | 266 (VDASIFKAW; listed as Homo sapiens) [compound 266] | CLL | BRCA, CRC, GBC, HCC, HNSCC, MEL, NHL, NSCLCadeno, NSCLCsquam, OC, OSCAR, PACA, RCC, SCLC, UBC, UEC | – | –
7 | 267 (KEKFPINGW; listed as Homo sapiens) [compound 267] | CLL | CRC, HNSCC, NHL, PACA | – | –
8 | 268 (NEDKGTKAW; listed as Homo sapiens) [compound 268] | CLL | – | – | –
9 | 269 (KELEDLNKW; listed as Homo sapiens) [compound 269] | CLL | BRCA, CRC, GBC, GBM, HCC, HNSCC, MEL, NHL, NSCLCadeno, NSCLCsquam, OC, OSCAR, PACA, PRCA, RCC, UEC | – | –
10 | 270 (AESEDLAVHL; listed as Homo sapiens) [compound 270] | CLL | MEL, NSCLCsquam | – | –
11 | 271 (AESEDLAVHLY; listed as Homo sapiens) [compound 271] | CLL | CRC, HCC, HNSCC, MEL, NHL, NSCLCadeno, NSCLCsquam, OSCAR, PACA | – | –
12 | 272 (KEFELRSSW; listed as Homo sapiens) [compound 272] | CLL | BRCA, CRC, GC, HCC, HNSCC, MEL, NHL, NSCLCadeno, NSCLCsquam, OSCAR, PACA, PRCA, RCC, UEC | – | –
13 | 273 (AEIEIVKEEF; listed as Homo sapiens) [compound 273] | CLL | BRCA, CCC, CRC, GBC, GBM, GC, HCC, HNSCC, MEL, NHL, NSCLCadeno, NSCLCsquam, OC, OSCAR, PACA, PRCA, RCC, SCLC, UBC, UEC | – | –
14 | 274 (GEAVTDHPDRLW; listed as Homo sapiens) [compound 274] | CLL | NHL | – | –
15 | 275 (TENPLTKLL; listed as Homo sapiens) [compound 275] | AML | BRCA, CRC, HCC, NHL | – | –
16 | 276 (EEEGNLLRSW; listed as Homo sapiens) [compound 276] | CLL | BRCA, CCC, CRC, GBC, GC, HCC, HNSCC, MEL, NHL, NSCLCadeno, NSCLCother, NSCLCsquam, OC, OSCAR, PACA, PRCA, RCC, SCLC, UBC, UEC | – | –
17 | 277 (EEGNLLRSW; listed as Homo sapiens) [compound 277] | CLL | BRCA, CRC, GC, HCC, HNSCC, MEL, NHL, NSCLCadeno, NSCLCother, NSCLCsquam, OSCAR, PACA, RCC, UBC, UEC | – | –
18 | ALDQNKMHY (listed as Homo sapiens) [Seq ID No 4] | – | – | CLL | BRCA, CCC, CRC, GBC, GC, GEJC, HCC, HNSCC, MEL, NSCLCadeno, NSCLCother, NSCLCsquam, OSCAR, PACA, PRCA, SCLC, UBC, UEC
19 | YINPAKLTPY (listed as Homo sapiens) [Seq ID No 3] | – | – | AML, CML | GBC, MEL, NHL, NSCLC and UBC
